{
  "source": "paper PMC5025654",
  "binders": {"B1": {"name": "P173 amelogenin (protein, UniProt P45561 17-189)", "chain": "MPLPPHPGHPGYINFSYEVLTPLKWYQNMIRHPYTSYGYEPMGGWLHHQIIPVVSQQTPQSHALQPHHHIPMVPAQQPGIPQQPMMPLPGQHSMTPTQHHQPNLPLPAQQPFQPQPVQPQPHQPLQPQSPMHPIQPLLPQPPLPPMFSMQSLLPDLPLEAWPATDKTKREEVD"}},
  "key": {"[1]": {"target": "TGF-β1 of the porcine enamel matrix (porcine (endogenous in porcine enamel))", "assay": "ELISA; sandwich ELISA (Quantikine kit, R&D Systems) with TGF-β1 capture and TGF-β1 detection antibodies on RP-HPLC-purified amelogenins; amount of TGF-β1 calculated from standard TGF-β1; complexes formed in vivo"}, "[2]": {"target": "TGF-β1 of the porcine enamel matrix (porcine (endogenous in porcine enamel))", "assay": "ELISA; modified sandwich ELISA: RP-HPLC-purified amelogenin samples on a plate coated with the TGF-β1 capture antibody, detected with biotinylated amelogenin antibody and HRP-conjugated streptavidin; complexes formed in vivo"}},
  "note": "Results are given in words; binding and its absence hold for the method and conditions named. A result given as binding can be weak or reduced; the word gives no strength.",
  "data": [
    {"binder": "B1", "values": [
      {"measurement": "binding", "setting": "[1]", "value": "binds"},
      {"measurement": "binding", "setting": "[2]", "value": "binds"}
    ]}
  ]
}
